Measurements as given in PMC4175335, “Thiosulfate Transfer Mediated by DsrE/TusA Homologs from Acidothermophilic Sulfur-oxidizing Archaeon Metallosphaera cuprina*” (The Journal of Biological Chemistry, 2014).

The chains behind the UniProt entries cited, without tags or fusion partners. Where a name states a change or a piece, a line headed by the entry shows the natural chain unless it says otherwise.
UniProt F4G1H3: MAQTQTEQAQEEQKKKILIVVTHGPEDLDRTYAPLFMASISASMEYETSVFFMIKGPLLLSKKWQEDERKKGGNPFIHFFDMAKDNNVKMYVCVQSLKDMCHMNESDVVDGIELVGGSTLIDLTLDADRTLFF
UniProt F4G1H4: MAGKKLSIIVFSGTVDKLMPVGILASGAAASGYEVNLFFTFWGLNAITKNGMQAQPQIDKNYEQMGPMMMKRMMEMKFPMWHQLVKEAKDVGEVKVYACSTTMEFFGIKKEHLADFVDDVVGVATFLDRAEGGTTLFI

Biological target: DsrE3A (Mcup_0681) of Metallosphaera cuprina Ar-4, N-terminally His-tagged (Metallosphaera cuprina Ar-4) (UniProt F4G1H3)
Test: SEC; proteins incubated together on ice for at least 1 h; HiLoad 16/60 Superdex 200; 50 mM Tris-HCl (pH 7.5), 150 mM NaCl; 1.0 ml/min; fractions checked by SDS-PAGE; both purified

Substance: DsrE2B (Mcup_0682) of Metallosphaera cuprina Ar-4, N-terminally His-tagged (from UniProt F4G1H4)
- binding: no binding

These are yes or no findings as the source states them, for the method shown.
